This series can be described thus: general procedure: solution-phase peptide synthesis; EDCI/HOBT/NMM (also HOOBT; TBTU/HOBT/DIPEA for cyclisation; DCC for D-22620). Particulars: trifluoroacetate.

“Ac-D-(2-Nal)-p-Cl-D-Phe-D-(3-Pal)-Ser-Tyr-Zu-Leu-OMe” yielded a step yield (coupling step) of 80%. Z-Ser-Tyr-Zu-Leu-OMe had a step yield (coupling step) of 72%. Same read-out and setting: the result for Z-Trp-Ser-Zu-Leu-OMe reads 63%.

In the case of cyclo(-Zu-Phe-D-Trp-Lys-Thr), where the note is “cyclisation step”, the cyclisation yield worked out at 54%. The substance “Ac-D-(2-Nal)-p-Cl-D-Phe-D-(3-Pal)-Ser-Tyr-D-Lys(Zu)-Leu-Arg-Pro-D-AlaNH2.-TFA” displayed a conjugation yield (conjugation step) of 27%.

Boc-Lys (Z) -Thr-Zu-Phe-D-Trp-OMe came in with a step yield (coupling step) of 80%. Take pGlu-His-Trp-Ser-Zu-Leu-Arg-Pro-Gly-NH2: under “late stage modification step”, the step yield is reported as 67%. Z-Trp-Ser-Zu-Leu-Arg(Pmc)-Pro-Gly-NH2: the step yield (coupling step) was 50%. For “pGlu-His(Trt)-Trp-Ser-Zu-Leu-Arg-(Pmc)-Pro-Gly-NH2”, under “coupling step”, the step yield came to 63%.
